These results are taken from EP3411040B1, “SMALL MOLECULES FOR MOUSE SATELLITE CELL PROLIFERATION” (dated 2026).

The structures given here were assigned with low confidence; some may be wrong.

Test [1] deals with myoblast. To be noted: differentiation media comprising 5% horse serum; FIG. 39.
The subject of test [2] is satellite cells. In words: Proliferation in combination with TGF-beta inhibitor. The note with it: added to the cultures.
Test [3] relates to satellite cells. The experiment in a line: LINCS library screen for satellite cell proliferation (Hoechst 33342 high content imaging). To be noted: determined in dose response; Tg:Pax7-nGFP satellite cells, 4 days.

In the case of `N#CC(=Cc1ccc(O)c(O)c1)C(=O)NCc1ccccc1`, in test [1], the myoblast differentiation result was “drive myoblast differentiation”.

Consider `Cc1cccc(-c2n[nH]cc2-c2ccc3ncccc3n2)n1`, for which the “proliferation, TGF-beta inhibitor alone” value in test [2] is “slight increase in proliferation”.

For `COc1nccc(-c2c(-c3ccc(F)cc3)ncn2C2CCC(O)CC2)n1` (stereo not drawn), in test [3], the Optimal treatment concentration turned out to be 5 µM.
